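Luminescence from an EWS-FLI1 target-promoter (NR0B1) reporter, set against a CMV-promoter reporter, two days after silencing single genes in TC32 Ewing sarcoma cells.
Each siRNA was applied at 20 nM.
A z-score of the log NR0B1-over-CMV signal, less the median of siRNAs with the same seed; more negative means a stronger specific loss of the NR0B1 reporter.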

This is part of the screen; most of the strongest results are not listed here.
Sequences are the guide (antisense) strand, without overhang.

siRNA,gene,seed-corrected z-score
UUCUUGACCCAGUCCAUGC,TAS2R7,-0.1115
ACAUAUACAGUCGUCGUCC,LOC729218,0.534
UUUCGGAAUUCAAUCUGGG,CCDC173,0.08154
UUCCGCACCAGUACAUUGC,ADCK1,-0.6979
AUACAUAAUUGUGAGAUUC,NCK2,-0.5485
UACACUUGUACGAUCUCUC,ZNF845,-0.02188
UACCAGAUCUGCAGCCUCC,NDUFS7,-0.0499
UUAGCGACCUGAUCUGUCC,MGAM2,-0.02354
UUUAGUAAUGAAUCGUAUC,KIAA1024,0.3825
UGAUUAAAAACCUUCGCAC,ZNF816,0.4634
AUUCGAAGAACUCACAUCA,FCN1,0.2791
UUAUCCACAUUAAACGAUC,PCNX4,0.1665
UACCGAUUUAGCGUGGUCC,NOP16,0.3604
UGCAGAAUAAUGAUGUUCC,C14orf28,0.3814
UCCUAUAGCACCAUAACUC,PHEX,-0.3612
UAUCUUUCAAGCAGCGGUU,PI3,1.332
AUAGCUUGCAGAGUCUCUC,DDX17,0.4475
AUCAUUGUAACACUGAUGC,SMIM14,0.5546
UCCCGUUCCCUUAUUAUCC,ALDH9A1,-0.0175
UAAGUACGCAGUCAGUCUC,PAPOLA,0.1097
UACAAGAUCAUAAUAAGGC,TGFBR1,-0.4398
AAGCCCACAAAAUAGUUGC,PORCN,-0.2589
UGUUUAGCAAGUUUUGGGC,ZNF165,0.8494
UUUCAUACCGACCUUAUGC,LOC646938,-0.124
UAGUUAUUAGAUUCCAAUC,FGF2,-0.8148
AACUGAACAACAUUGACUG,GARS,-0.1658
AGGUGAAUCACAUCAAAGC,PRKAG3,-0.1752
UCUUGUUAGAUGAUCAUUG,LINC00992,0.3328
UCAGAUGCUUCCACAGUGC,ZBED2,0.1864
UAUCGUAAAAUUGGUCCAG,TTI1,0.5502
UUUGUCGUCAGACUGGAUG,UQCRC2,-1.102
AAAUUAUCUACUCAUGUUC,FRAT1,1.975
AUACUUCUCAUCGAACUGG,MYADM,-1.065
UAGUCAAUGAGGUCAGGCC,ACTN2,-0.6497
UUCGCUUCCCUGUUUUAGC,IFNG,1.234
UCAACCUUACCAAUAAGGC,F2RL1,-0.9054
UAUCUGUAGCAAACAGUCC,PLPPR5,-1.062
AAUGUUAUAAGGCAGUUGA,ACKR4,-0.115
UGCUUGACCAAAUUCAGGG,AGTPBP1,-0.1586
UUUACAUUCACCUAAGUGA,COX19,0.9934

Repeated from the top, 2 entries:

| siRNA | gene | seed-corrected z-score |
|---|---|---|
| `UUCUUGACCCAGUCCAUGC` | TAS2R7 | -0.1115 |
| `ACAUAUACAGUCGUCGUCC` | LOC729218 | 0.534 |

The results are deposited in PubChem (AID1159506; NCATS, 2015).